Measured values published in patent publication US20120220564A1, “SELECTIVE CALCIUM CHANNEL MODULATORS” (Zalicus Pharmaceuticals Ltd., priority 2009, published 2012).
Structures were worked out from names or drawings and are uncertain.

The chains behind the UniProt entries cited, without tags or fusion partners.
UniProt O95180, whole entry: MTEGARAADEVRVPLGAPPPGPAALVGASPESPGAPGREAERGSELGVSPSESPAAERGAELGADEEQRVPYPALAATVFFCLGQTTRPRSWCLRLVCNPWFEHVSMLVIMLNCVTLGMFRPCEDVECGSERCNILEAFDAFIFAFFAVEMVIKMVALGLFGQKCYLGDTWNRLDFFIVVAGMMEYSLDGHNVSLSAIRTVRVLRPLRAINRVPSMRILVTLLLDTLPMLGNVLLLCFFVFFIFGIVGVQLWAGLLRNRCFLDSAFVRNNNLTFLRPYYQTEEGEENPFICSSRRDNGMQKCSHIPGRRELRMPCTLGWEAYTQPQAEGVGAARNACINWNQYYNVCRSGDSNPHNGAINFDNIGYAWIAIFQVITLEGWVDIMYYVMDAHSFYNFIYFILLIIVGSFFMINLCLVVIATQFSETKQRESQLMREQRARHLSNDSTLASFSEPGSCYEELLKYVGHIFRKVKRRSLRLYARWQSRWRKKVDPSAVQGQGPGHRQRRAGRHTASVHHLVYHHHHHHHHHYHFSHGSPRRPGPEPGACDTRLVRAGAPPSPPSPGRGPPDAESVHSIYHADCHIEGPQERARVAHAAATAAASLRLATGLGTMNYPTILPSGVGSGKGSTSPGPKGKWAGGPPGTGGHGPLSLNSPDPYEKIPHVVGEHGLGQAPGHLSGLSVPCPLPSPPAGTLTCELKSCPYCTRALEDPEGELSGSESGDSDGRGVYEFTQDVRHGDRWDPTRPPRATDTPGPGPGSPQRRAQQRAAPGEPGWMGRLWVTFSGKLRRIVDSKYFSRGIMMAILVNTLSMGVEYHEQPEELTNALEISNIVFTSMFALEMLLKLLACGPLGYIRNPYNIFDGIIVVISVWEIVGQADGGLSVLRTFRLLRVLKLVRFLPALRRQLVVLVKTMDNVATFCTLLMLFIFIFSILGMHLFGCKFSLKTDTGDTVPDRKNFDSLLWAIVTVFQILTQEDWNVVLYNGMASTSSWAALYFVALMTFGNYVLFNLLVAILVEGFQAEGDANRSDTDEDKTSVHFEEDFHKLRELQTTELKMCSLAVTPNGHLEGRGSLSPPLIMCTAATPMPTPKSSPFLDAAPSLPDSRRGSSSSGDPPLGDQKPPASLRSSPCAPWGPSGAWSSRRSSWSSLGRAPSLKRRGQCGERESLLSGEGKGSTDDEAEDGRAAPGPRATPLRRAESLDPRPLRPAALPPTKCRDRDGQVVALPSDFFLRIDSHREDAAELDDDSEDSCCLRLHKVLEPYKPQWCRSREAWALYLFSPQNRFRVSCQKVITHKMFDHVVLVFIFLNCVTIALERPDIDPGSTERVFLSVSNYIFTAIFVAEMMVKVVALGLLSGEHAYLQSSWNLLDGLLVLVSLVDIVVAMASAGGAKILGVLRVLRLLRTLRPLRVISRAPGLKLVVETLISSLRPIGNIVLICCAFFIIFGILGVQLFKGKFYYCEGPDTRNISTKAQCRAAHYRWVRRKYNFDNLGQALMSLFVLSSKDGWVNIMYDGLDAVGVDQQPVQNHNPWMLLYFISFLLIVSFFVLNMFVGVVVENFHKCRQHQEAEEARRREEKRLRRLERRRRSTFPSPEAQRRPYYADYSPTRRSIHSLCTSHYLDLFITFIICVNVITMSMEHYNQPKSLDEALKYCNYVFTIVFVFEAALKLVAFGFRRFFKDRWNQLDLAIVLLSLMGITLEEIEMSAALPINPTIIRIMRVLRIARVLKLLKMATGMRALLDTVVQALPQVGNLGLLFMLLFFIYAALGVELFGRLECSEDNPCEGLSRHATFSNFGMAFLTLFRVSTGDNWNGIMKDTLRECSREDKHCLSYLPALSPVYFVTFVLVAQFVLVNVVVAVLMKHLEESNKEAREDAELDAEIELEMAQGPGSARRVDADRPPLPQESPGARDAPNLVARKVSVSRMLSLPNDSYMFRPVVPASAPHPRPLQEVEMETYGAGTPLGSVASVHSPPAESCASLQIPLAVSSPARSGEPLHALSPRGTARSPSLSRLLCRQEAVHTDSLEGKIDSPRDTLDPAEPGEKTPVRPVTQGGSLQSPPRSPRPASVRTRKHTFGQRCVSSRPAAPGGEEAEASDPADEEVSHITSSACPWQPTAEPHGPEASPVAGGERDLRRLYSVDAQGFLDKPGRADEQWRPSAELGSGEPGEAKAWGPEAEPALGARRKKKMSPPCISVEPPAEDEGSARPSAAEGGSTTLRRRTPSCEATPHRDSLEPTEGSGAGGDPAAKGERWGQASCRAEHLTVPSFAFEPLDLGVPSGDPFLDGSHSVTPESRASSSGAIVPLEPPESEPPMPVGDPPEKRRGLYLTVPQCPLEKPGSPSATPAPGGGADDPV

Biological target: α1H (CaV 3.2) (Homo sapiens, UniProt O95180)
Test: T-type calcium channel block, whole cell patch clamp
Settings: read-out: T-type Calcium Channel Block α1H (CaV 3.2) IC50; HEK cells, mainly non-inactivated protocol; values above 10,000 nM represented as 10000
Method: T-type calcium channel blocking activity was assayed in human embryonic kidney cells, HEK 293 (Invitrogen), stably transfected with the T-type calcium channel subunits. Briefly, cells were cultured in Dulbecco's modified eagle medium (DMEM) supplemented with 10% fetal bovine serum, 200 U/ml penicillin, and 0.2 mg/mL streptomycin at 37° C. with 5% CO2. At 85% confluency, cells were split with 0.25% trypsin/1 mM EDTA and plated at 10% confluency on glass coverslips. At 12 hours, the medium was replaced, and the cells stably transfected using a standard calcium phosphate protocol and the appropriate calcium channel cDNA's. Fresh DMEM was supplied, and the cells transferred to 28° C./5% CO2. Cells were incubated for 1 to 2 days prior to whole cell recording.
Standard patch-clamp techniques were employed to identify blockers of T-type currents. Briefly, previously described HEK cell lines stably expressing human α1G, α1H and α1I T-type channels were used for all the recordings (passage #: 4-20, 37° C., 5% CO2). […] Data were analyzed using Clampfit (Axon Instruments) and SigmaPlot 4.0 (Jandel Scientific). […]
Test compounds were dissolved in external solution, 0.1-0.01% DMSO. […] In Table 4, empty cells indicate that inhibition by the compound was not detected.

Compound `O=C(NCC1CCN(C(=O)[C@@H]2CCCCN2)CC1)Nc1cc(C(F)(F)F)cc(C(F)(F)F)c1` has an IC50 of 1.11 µM.
